In PMC9512921:
No constants are given. Whether binding was seen depends on the method and setting. In cells and extracts the contact can be indirect. Some results given as binding are weak or reduced against the parent protein; the word gives no strength. For some of these results: Tags and fused reporters may be left off the sequences shown.

T1: p66Shc (66 kDa isoform of ShcA), endogenous (mouse (endogenous in mouse liver and AML12)) (UniProt P98083)
T1 sequence: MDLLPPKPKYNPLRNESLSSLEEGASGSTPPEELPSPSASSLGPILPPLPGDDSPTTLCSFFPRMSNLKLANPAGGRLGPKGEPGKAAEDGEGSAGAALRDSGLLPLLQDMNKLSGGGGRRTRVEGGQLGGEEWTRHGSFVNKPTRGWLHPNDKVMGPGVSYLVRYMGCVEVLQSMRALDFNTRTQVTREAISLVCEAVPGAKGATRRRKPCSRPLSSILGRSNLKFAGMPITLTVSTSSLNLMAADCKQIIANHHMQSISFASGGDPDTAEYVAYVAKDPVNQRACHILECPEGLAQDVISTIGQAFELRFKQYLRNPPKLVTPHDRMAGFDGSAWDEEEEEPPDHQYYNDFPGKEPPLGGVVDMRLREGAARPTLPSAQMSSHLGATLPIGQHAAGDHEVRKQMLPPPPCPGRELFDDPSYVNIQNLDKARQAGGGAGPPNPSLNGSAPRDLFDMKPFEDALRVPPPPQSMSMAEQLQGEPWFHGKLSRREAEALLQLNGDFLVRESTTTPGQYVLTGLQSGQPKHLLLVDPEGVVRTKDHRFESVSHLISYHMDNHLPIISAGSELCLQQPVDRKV

T2: Flag-USP15 C269A (UniProt Q9Y4E8)
T2 sequence: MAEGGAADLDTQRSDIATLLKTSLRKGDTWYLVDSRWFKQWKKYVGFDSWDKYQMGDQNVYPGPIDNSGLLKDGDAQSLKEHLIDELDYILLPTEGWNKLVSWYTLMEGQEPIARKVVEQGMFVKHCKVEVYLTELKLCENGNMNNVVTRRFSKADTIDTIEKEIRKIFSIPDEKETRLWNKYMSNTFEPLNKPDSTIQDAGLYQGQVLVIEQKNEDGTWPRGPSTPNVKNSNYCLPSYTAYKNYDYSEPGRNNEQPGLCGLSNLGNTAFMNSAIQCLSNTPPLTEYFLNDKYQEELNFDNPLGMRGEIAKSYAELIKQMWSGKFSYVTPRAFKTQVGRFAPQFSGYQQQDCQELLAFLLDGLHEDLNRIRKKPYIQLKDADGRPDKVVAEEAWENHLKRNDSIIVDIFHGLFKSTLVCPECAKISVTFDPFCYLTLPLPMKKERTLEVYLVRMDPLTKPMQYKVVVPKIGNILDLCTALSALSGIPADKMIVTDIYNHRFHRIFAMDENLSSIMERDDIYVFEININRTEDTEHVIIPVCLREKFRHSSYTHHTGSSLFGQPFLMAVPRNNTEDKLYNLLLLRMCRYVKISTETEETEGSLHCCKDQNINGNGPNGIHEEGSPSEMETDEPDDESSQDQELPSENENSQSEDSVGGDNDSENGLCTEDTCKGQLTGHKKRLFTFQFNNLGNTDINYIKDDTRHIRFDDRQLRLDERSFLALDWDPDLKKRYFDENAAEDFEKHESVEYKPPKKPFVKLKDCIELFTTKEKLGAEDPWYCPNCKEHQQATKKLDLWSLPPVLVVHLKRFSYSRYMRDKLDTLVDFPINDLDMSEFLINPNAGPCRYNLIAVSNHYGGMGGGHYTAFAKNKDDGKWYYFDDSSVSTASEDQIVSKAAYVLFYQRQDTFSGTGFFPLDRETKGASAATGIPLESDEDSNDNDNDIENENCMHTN

T3: Flag-USP15 WT (UniProt Q9Y4E8)
T3 sequence: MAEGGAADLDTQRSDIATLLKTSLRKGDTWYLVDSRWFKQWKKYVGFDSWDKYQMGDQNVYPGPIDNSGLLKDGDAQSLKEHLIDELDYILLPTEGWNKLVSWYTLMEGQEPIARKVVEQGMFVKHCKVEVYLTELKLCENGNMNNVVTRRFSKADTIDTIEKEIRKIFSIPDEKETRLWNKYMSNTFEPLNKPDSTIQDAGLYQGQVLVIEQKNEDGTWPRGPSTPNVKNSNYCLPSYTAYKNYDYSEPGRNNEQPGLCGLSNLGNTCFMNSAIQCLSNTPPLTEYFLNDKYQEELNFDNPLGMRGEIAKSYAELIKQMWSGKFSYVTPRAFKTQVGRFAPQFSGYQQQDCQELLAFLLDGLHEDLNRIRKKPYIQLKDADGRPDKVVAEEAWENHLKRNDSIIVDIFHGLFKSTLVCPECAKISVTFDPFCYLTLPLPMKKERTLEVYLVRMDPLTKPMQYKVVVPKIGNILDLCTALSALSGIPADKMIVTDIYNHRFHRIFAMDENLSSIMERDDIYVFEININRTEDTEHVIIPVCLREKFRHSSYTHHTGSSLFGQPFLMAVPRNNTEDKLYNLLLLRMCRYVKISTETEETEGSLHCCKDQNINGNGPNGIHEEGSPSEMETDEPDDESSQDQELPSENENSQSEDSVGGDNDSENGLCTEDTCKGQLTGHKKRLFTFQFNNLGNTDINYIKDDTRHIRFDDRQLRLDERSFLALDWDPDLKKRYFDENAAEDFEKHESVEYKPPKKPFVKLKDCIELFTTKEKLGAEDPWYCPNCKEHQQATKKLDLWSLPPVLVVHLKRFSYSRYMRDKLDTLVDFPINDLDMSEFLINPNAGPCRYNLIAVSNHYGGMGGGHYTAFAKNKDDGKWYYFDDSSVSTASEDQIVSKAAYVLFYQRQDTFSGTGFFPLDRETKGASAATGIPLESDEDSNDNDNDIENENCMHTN


Columns and labels:
[1] = biological target: T1, p66Shc (66 kDa isoform of ShcA), endogenous (mouse (endogenous in mouse liver and AML12)); assay: co-IP; endogenous proteins from AML12 cells (exposed to H/R); antibody on Protein A/G magnetic beads, room temperature 1 h; western blot
[2] = biological target: T1, p66Shc (66 kDa isoform of ShcA), endogenous (mouse (endogenous in mouse liver and AML12)); assay: co-IP; endogenous proteins from livers of mice (also exposed to I/R); antibody on Protein A/G magnetic beads, room temperature 1 h; western blot
Flag-USP15 C269A = biological target: T2, Flag-USP15 C269A; assay: co-IP; HEK293 cells co-transfected with Myc-p66Shc (or its mutants) and Flag-USP15 (WT or C269A); IP with anti-Flag or anti-Myc antibody; western blot
Flag-USP15 WT = biological target: T3, Flag-USP15 WT; assay: as above

Row | Binder | binding [1] | binding [2] | binding (Flag-USP15 C269A) | binding (Flag-USP15 WT)
1 | ubiquitin-specific protease 15 (USP15), endogenous (enzyme, UniProt Q8R5H1 1-981) MAEGGAADLDTQRSDIATLLKTSLRKGDTWYLVDSRWFKQWKKYVGFDSWDKYQMGDQNVYPGPIDNSGLLKDGDAQSLKEHLIDELDYILLPTEGWNKLVSWYTLMEGQEPIARKVVEQGMFVKHCKVEVYLTELKLCENGNMNNVVTRRFSKADTIDTIEKEIRKIFNIPDEKEARLWNKYMSNTFEPLNKPDSTIQDAGLYQGQVLVIEQKNEDGTWPRGPSTPKSPGASNFSTLPKISPSSLSNNYNNINNRNVKNSNYCLPSYTAYKNYDYSEPGRNNEQPGLCGLSNLGNTCFMNSAIQCLSNTPPLTEYFLNDKYQEELNFDNPLGMRGEIAKSYAELIKQMWSGKFSYVTPRAFKTQVGRFAPQFSGYQQQDCQELLAFLLDGLHEDLNRIRKKPYIQLKDADGRPDKVVAEEAWENHLKRNDSIIVDIFHGLFKSTLVCPECAKISVTFDPFCYLTLPLPMKKERSLEVYLVRMDPLAKPMQYKVIVPKIGNILDLCTALSALSGVPADKMIVTDIYNHRFHRIFAVDENLSSIMERDDIYVFEININRAEDTEHVVIPVCLREKFRHSSYTHHTGSSLFGQPFLMAIPRNNTEDKLYNLLLLRMCRYVKMSTETEETDGHLRCCEDQNINGNGPNGLHEEGSPSEMETDEPDDESSQDQELPSENENSQSEDSVGGDNDSENGLCTEETCKGQLTGHKKRLFTFQFNNLGNNDINYIKDDTSHIRFDDRQLRLDERSFLALDWDPDLKKRYFDENAAEDFEKHESVEYKPPKRPFVKLKDCIELFTTKEKLGAEDPWYCPNCKEHQQATKKLDLWSLPPVLVVHLKRFSYSRYMRDKLDTLVDFPISDLDMSEFLINPNAGPCRYNLIAVSNHYGGMGGGHYTAFAKNKDDGKWYYFDDSSVSTASEDQIVSKAAYVLFYQRQDTFSGTGFFPLDRETKGASAATGIPLESDEDSNDNDNDLENENCMHTN | binds | binds | – | –
2 | Myc-p66Shc (protein, UniProt P29353-1 1-583) MDLLPPKPKYNPLRNESLSSLEEGASGSTPPEELPSPSASSLGPILPPLPGDDSPTTLCSFFPRMSNLRLANPAGGRPGSKGEPGRAADDGEGIVGAAMPDSGPLPLLQDMNKLSGGGGRRTRVEGGQLGGEEWTRHGSFVNKPTRGWLHPNDKVMGPGVSYLVRYMGCVEVLQSMRALDFNTRTQVTREAISLVCEAVPGAKGATRRRKPCSRPLSSILGRSNLKFAGMPITLTVSTSSLNLMAADCKQIIANHHMQSISFASGGDPDTAEYVAYVAKDPVNQRACHILECPEGLAQDVISTIGQAFELRFKQYLRNPPKLVTPHDRMAGFDGSAWDEEEEEPPDHQYYNDFPGKEPPLGGVVDMRLREGAAPGAARPTAPNAQTPSHLGATLPVGQPVGGDPEVRKQMPPPPPCPGRELFDDPSYVNVQNLDKARQAVGGAGPPNPAINGSAPRDLFDMKPFEDALRVPPPPQSVSMAEQLRGEPWFHGKLSRREAEALLQLNGDFLVRESTTTPGQYVLTGLQSGQPKHLLLVDPEGVVRTKDHRFESVSHLISYHMDNHLPIISAGSELCLQQPVERKL | – | – | binds | binds
